Results from one PubChem assay

Source: PubChem BioAssay AID1224904 (Broad Institute, 2016).

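Selective DUX4 reporter inhibition in doxycycline-induced 293T-iDUX4 cells, scored as Gaussia percent activity minus Italica percent activity, after a 24-hour treatment.
The test concentration is not given here.
Percent difference between the Gaussia and Italica channels; more negative values mean more selective suppression of the DUX4 reporter, and higher values mean less activity.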

Values are in %.
How 0% and 100% were set is not given here.
Common to all entries: measured here: selective DUX4 reporter inhibition.
This is a side read-out of the assay, for part of the compounds, not drawn at random.

* O=C(Nc1cccc(F)c1)N1CCCCN2[C@H](CO)[C@H](c3ccc(-c4ccncc4)cc3)[C@H]2C1 | Gaussia minus Italica difference -10.57%
* CC(C)C#Cc1ccc([C@H]2[C@@H](CO)N3C(=O)CN(S(=O)(=O)c4ccccc4)C[C@H]23)cc1 | Gaussia minus Italica difference 5.531%
* COc1cccc(-c2ccc([C@H]3[C@@H](CO)N4CCCCN(S(=O)(=O)c5cccs5)C[C@@H]34)cc2)c1 | Gaussia minus Italica difference -5.258%
* N#Cc1cccc(-c2ccc(C3[C@@H]4CN(C(=O)c5ccccn5)C[C@H]3N4)cc2)c1 (some centres not stated) | Gaussia minus Italica difference -1.136%
* CCCN1C[C@@H](C)[C@H](OC)CN(C)C(=O)c2cc(NS(=O)(=O)c3ccccc3)ccc2OC[C@H]1C | Gaussia minus Italica difference -11.74%
* COc1ccc(NC(=O)N(C)C[C@@H]2OCc3ccccc3-c3c(n(C)c4ccccc34)C(=O)N([C@H](C)CO)C[C@H]2C)c(OC)c1 | Gaussia minus Italica difference -6.125%
* COc1ccc2c3c(n(C)c2c1)[C@@H](CO)N(Cc1ccccc1)CC31CCN(C(=O)C2CC2)CC1 | Gaussia minus Italica difference -6.387%
* COc1cccc(C#Cc2ccc([C@@H]3[C@@H](CO)N4C(=O)CN(C(=O)C5CC5)C[C@@H]34)cc2)c1 | Gaussia minus Italica difference -7.152%
* COc1ccc2c3c([nH]c2c1)[C@@H](CO)N(C(=O)Nc1ccc(F)cc1)CC31CN(S(=O)(=O)c2cccs2)C1 | Gaussia minus Italica difference -14.05%
* COc1ccc(-c2ccccc2[C@H]2[C@@H](CO)N(C(=O)NC3CCCCC3)[C@H]2C#N)cc1 | Gaussia minus Italica difference -2.537%
* Cc1ccc(S(=O)(=O)N2CC[C@@H]3[C@H]2c2cc(-c4ccc(C#N)cc4)ccc2N(C)[C@H]3CO)cc1 | Gaussia minus Italica difference 8.365%
* O=S(=O)(c1ccccc1F)N1CC[C@@H]2[C@@H](CO)Nc3ccc(-c4cccc(F)c4)cc3[C@@H]21 | Gaussia minus Italica difference -8.93%
* O=C(CC1CC1)N1[C@H](CO)[C@@H](c2ccccc2)C12CN(Cc1cc(F)ccc1F)C2 | Gaussia minus Italica difference -8.684%
* COc1ccc2c3c([nH]c2c1)[C@@H](CO)N(Cc1ccccc1)CC31CCN(Cc2cncnc2)CC1 | Gaussia minus Italica difference -3.497%
* O=C(C[C@H]1C[C@@H]2c3cc(NC(=O)c4ccc5c(c4)OCO5)ccc3O[C@@H]2[C@@H](CO)O1)NCc1ccccn1 | Gaussia minus Italica difference -6.333%
* COc1ccc2c3c(n(C)c2c1)[C@@H](CO)N(C(=O)Nc1ccc(F)cc1)CC31CN(S(=O)(=O)c2cccs2)C1 | Gaussia minus Italica difference 7.452%
* N#Cc1cccc(-c2ccc([C@@H]3[C@@H](CO)N4CCCCN(C(=O)Nc5cccc(F)c5)C[C@@H]34)cc2)c1 | Gaussia minus Italica difference -20.22%
* COc1ccc2c3c(n(C)c2c1)[C@H](CO)N(C(=O)C1CCCCC1)CC31CCN(C(=O)Nc2cccc(F)c2)CC1 | Gaussia minus Italica difference 5.634%
* O=C(C[C@@H]1CC[C@@H]2[C@H](COC[C@@H](O)CN2Cc2cccc(C(F)(F)F)c2)O1)NCc1ccc(F)cc1 | Gaussia minus Italica difference -7.081%
* CCC(=O)N1CC[C@@H]2[C@H](CO)Nc3ccc(C#Cc4ccccc4F)cc3[C@@H]21 | Gaussia minus Italica difference -22.14%
* COCC(=O)N1CC(=O)N2[C@H](CO)[C@H](c3ccc(C#CCc4ccccc4)cc3)[C@H]2C1 | Gaussia minus Italica difference -14.73%
* N#Cc1cccc(-c2ccc3c(c2)[C@@H]2[C@@H](CCN2S(=O)(=O)c2ccccc2)[C@H](CO)N3)c1 | Gaussia minus Italica difference 0.2142%
* Cc1ccccc1-c1ccc([C@H]2[C@@H](CO)N3CCCCN(S(=O)(=O)Cc4ccccc4)C[C@@H]23)cc1 | Gaussia minus Italica difference -13.05%
* COCC(=O)N1CCC2(CC1)CN(Cc1cc(F)ccc1F)[C@H](CO)c1c2c2ccc(OC)cc2n1C | Gaussia minus Italica difference -14.25%
* COC(=O)c1ccc(CN2CC(=O)N3[C@H](CO)[C@H](c4ccc(-c5ccccc5F)cc4)[C@H]3C2)cc1 | Gaussia minus Italica difference -8.676%
* COc1cccc(-c2ccc3c(c2)[C@@H]2[C@@H](CCN2S(=O)(=O)c2ccccc2F)[C@H](CO)N3C)c1 | Gaussia minus Italica difference 30.64%
* CO[C@H]1CN(C)C(=O)c2ccc(NC(=O)Nc3cccc(Cl)c3)cc2OC[C@H](C)NC[C@@H]1C | Gaussia minus Italica difference 0.1009%
* C[C@H]1CN([C@@H](C)CO)C(=O)c2ccccc2-c2ccccc2CO[C@H]1CN(C)Cc1cccc(C(F)(F)F)c1 | Gaussia minus Italica difference -13.92%
* Cc1ccc(OC(=O)N(C)C[C@H]2OCc3ccccc3-c3c(n(C)c4ccccc34)C(=O)N([C@H](C)CO)C[C@@H]2C)cc1 | Gaussia minus Italica difference -2.176%
* O=C(C[C@H]1CC[C@H]2[C@@H](COC[C@H](O)CN2CCC(F)(F)F)O1)N1CCC(Cc2ccccc2)CC1 | Gaussia minus Italica difference -12.72%
* N#Cc1cccc(-c2ccc([C@H]3[C@@H](CO)N4CCCCN(C(=O)Nc5cccc(F)c5)C[C@H]34)cc2)c1 | Gaussia minus Italica difference -3.672%
* O=C(C1CCCCC1)N1CC2(C1)[C@H](c1ccccc1)[C@@H](CO)N2Cc1ccccc1F | Gaussia minus Italica difference -18.94%
* OC[C@@H]1[C@H](c2ccc(-c3ccc(F)cc3)cc2)[C@@H]2CN(CCC(F)(F)F)CCCCN12 | Gaussia minus Italica difference -24.82%
* Cc1cccc(-c2ccc(C3[C@@H]4CN(C(=O)Nc5ccc(C(F)(F)F)cc5)C[C@H]3N4)cc2)c1 (some centres not stated) | Gaussia minus Italica difference 0.5693%
* CCC(=O)N1CCC2(CC1)CN(Cc1ccccc1Cl)[C@H](CO)c1c2c2ccc(OC)cc2n1C | Gaussia minus Italica difference -9.004%
* COc1ccc2c3c([nH]c2c1)[C@H](CO)N(C(=O)C1CCC1)CC31CN(Cc2cccc(F)c2)C1 | Gaussia minus Italica difference -18.48%

Some entries from above, unchanged:

* CCC(=O)N1CC[C@@H]2[C@H](CO)Nc3ccc(C#Cc4ccccc4F)cc3[C@@H]21 : Gaussia minus Italica difference -22.14%
* Cc1ccc(S(=O)(=O)N2CC[C@@H]3[C@H]2c2cc(-c4ccc(C#N)cc4)ccc2N(C)[C@H]3CO)cc1 : Gaussia minus Italica difference 8.365%